Experimental data from doi:10.1101/2024.08.01.24310552.
Where two headings read alike, the source gives them in different places. These are yes or no findings as the source states them, for the method shown. In cells and extracts the contact can be indirect. Here binding means that the protein was enriched with, or labelled near, the bait; the list need not be complete. No binding means not detected with the bait.

Chains of the proteins cited; added tags and fusions are not shown.
UniProt O14980: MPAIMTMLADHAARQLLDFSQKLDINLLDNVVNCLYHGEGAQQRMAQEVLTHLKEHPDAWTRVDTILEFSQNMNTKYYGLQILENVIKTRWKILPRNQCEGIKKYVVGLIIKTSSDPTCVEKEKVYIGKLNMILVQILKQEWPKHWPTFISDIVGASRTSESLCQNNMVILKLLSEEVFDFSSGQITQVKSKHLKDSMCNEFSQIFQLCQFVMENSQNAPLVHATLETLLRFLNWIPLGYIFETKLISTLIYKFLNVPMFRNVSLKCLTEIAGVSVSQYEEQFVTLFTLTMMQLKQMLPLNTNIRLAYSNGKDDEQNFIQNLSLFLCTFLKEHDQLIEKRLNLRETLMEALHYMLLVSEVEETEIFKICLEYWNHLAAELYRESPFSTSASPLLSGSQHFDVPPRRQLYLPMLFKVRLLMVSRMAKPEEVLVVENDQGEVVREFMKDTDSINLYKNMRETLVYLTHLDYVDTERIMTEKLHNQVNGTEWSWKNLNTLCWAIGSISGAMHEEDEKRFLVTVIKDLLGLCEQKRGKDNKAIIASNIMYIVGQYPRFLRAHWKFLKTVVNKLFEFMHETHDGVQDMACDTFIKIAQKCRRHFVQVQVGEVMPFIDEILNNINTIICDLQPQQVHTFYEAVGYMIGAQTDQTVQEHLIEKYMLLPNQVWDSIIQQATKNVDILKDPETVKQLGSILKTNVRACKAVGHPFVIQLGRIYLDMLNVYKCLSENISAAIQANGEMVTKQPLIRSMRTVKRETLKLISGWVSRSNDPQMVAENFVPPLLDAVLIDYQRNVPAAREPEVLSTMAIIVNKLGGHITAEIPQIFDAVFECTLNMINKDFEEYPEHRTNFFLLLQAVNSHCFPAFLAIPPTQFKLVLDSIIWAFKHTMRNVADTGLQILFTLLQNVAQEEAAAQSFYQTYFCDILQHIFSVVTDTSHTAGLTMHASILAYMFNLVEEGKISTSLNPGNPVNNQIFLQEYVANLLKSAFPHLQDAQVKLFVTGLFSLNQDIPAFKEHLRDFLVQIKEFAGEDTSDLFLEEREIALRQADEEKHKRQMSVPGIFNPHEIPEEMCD

T1: NXT2 (native protein pulled down from adult human testis) (human (endogenous in adult testis)) (UniProt Q9NPJ8)
T1 sequence: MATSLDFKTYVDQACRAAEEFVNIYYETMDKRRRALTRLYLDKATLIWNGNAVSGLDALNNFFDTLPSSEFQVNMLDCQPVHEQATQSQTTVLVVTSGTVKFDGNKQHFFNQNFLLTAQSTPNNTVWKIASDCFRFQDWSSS


How the values were obtained:
[1] = target: T1, NXT2 (native protein pulled down from adult human testis) (human (endogenous in adult testis)); assay: affinity purification with mass spectrometry
[2] = target: T1, NXT2 (native protein pulled down from adult human testis) (human (endogenous in adult testis)); assay: affinity purification with mass spectrometry; remark: listed apart in the source

Row | Molecule | binding [1] | binding [2]
1 | XPO1 (from UniProt O14980 1-1071) | no binding | 
2 | NXF2 (endogenous, testis) (protein, UniProt Q9GZY0 1-626) MCSTLKKCGTYRTEVAECHDHGSTFQGRKKGGSSFRDNFDKRSCHYEHGGYERPPSHCQENDGSVEMRDVHKDQQLRHTPYSIRCERRMKWHSEDEIRITTWRNRKPPERKMSQNTQDGYTRNWFKVTIPYGIKYDKAWLMNSIQSHCSDRFTPVDFHYVRNRACFFVQDASAASALKDVSYKIYDDENQKICIFVNHSTAPYSVKNKLKPGQMEMLKLTMNKRYNVSQQALDLQNLRFDPDLMGRDIDIILNRRNCMAATLKIIERNFPELLSLNLCNNKLYQLDGLSDITEKAPKVKTLNLSKNKLESAWELGKVKGLKLEELWLEGNPLCSTFSDQSAYVSAIRDCFPKLLRLDGRELSAPVIVDIDSSETMKPCKENFTGSETLKHLVLQFLQQYYSIYDSGDRQGLLGAYHDEACFSLAIPFDPKDSAPSSLCKYFEDSRNMKTLKDPYLKGELLRRTKRDIVDSLSALPKTQHDLSSILVDVWCQTERMLCFSVNGVFKEVEGQSQGSVLAFTRTFIATPGSSSSLCIVNDELFVRDASPQETQSAFSIPVSTLSSSSEPSLSQEQQEMVQAFSAQSGMKLEWSQKCLQDNEWNYTRAGQAFTMLQTEGKIPAEAFKQIS |  | binds
3 | NXF3 (endogenous, testis) (protein, UniProt Q9H4D5 1-531) MSLPSGHTTGHTDQVVQRRARCWDIYQRRFSSRSEPVNPGMHSSSHQQQDGDAAMHGAHMDSPVRYTPYTISPYNRKGSFRKQDQTHVNMEREQKPPERRMEGNMPDGTLGSWFKITVPFGIKYNEKWLLNLIQNECSVPFVPVEFHYENMHASFFVENASIAYALKNVSGKIWDEDNEKISIFVNPAGIPHFVHRELKSEKVEQIKLAMNQQCDVSQEALDIQRLPFYPDMVNRDTKMASNPRKCMAASLDVHEENIPTVMSAGEMDKWKGIEPGEKCADRSPVCTTFSDTSSNINSILELFPKLLCLDGQQSPRATLCGTEAHKRLPTCKGSFFGSEMLKNLVLQFLQQYYLIYDSGDRQGLLSAYHDEACFSLSIPFNPEDSAPSSFCKFFKDSRNIKILKDPYLRGELLKHTKLDIVDSLSALPKTQHDLSSFLVDMWYQTEWMLCFSVNGVFKEVEGQSQGSVLAFTRTFIATPGSSSSLCIVNDKLFVRDTSHQGTQSALFTLVPTAFSSSVPAFSQEQQKMLPS |  | binds
4 | NUP93 (protein, UniProt Q8N1F7 1-819) MDTEGFGELLQQAEQLAAETEGISELPHVERNLQEIQQAGERLRSRTLTRTSQETADVKASVLLGSRGLDISHISQRLESLSAATTFEPLEPVKDTDIQGFLKNEKDNALLSAIEESRKRTFGMAEEYHRESMLVEWEQVKQRILHTLLASGEDALDFTQESEPSYISDVGPPGRSSLDNIEMAYARQIYIYNEKIVNGHLQPNLVDLCASVAELDDKSISDMWTMVKQMTDVLLTPATDALKNRSSVEVRMEFVRQALAYLEQSYKNYTLVTVFGNLHQAQLGGVPGTYQLVRSFLNIKLPAPLPGLQDGEVEGHPVWALIYYCMRCGDLLAASQVVNRAQHQLGEFKTWFQEYMNSKDRRLSPATENKLRLHYRRALRNNTDPYKRAVYCIIGRCDVTDNQSEVADKTEDYLWLKLNQVCFDDDGTSSPQDRLTLSQFQKQLLEDYGESHFTVNQQPFLYFQVLFLTAQFEAAVAFLFRMERLRCHAVHVALVLFELKLLLKSSGQSAQLLSHEPGDPPCLRRLNFVRLLMLYTRKFESTDPREALQYFYFLRDEKDSQGENMFLRCVSELVIESREFDMILGKLENDGSRKPGVIDKFTSDTKPIINKVASVAENKGLFEEAAKLYDLAKNADKVLELMNKLLSPVVPQISAPQSNKERLKNMALSIAERYRAQGISANKFVDSTFYLLLDLITFFDEYHSGHIDRAFDIIERLKLVPLNQESVEERVAAFRNFSDEIRHNLSEVLLATMNILFTQFKRLKGTSPSSSSRPQRVIEDRDSQLRSQARTLITFAGMIPYRTSGDTNARLVQMEVLMN |  | binds
5 | SPATA5 (protein, UniProt Q8NB90 1-893) MSSKKNRKRLNQSAENGSSLPSAASSCAEARAPSAGSDFAATSGTLTVTNLLEKVDDKIPKTFQNSLIHLGLNTMKSANICIGRPVLLTSLNGKQEVYTAWPMAGFPGGKVGLSEMAQKNVGVRPGDAIQVQPLVGAVLQAEEMDVALSDKDMEINEEELTGCILRKLDGKIVLPGNFLYCTFYGRPYKLQVLRVKGADGMILGGPQSDSDTDAQRMAFEQSSMETSSLELSLQLSQLDLEDTQIPTSRSTPYKPIDDRITNKASDVLLDVTQSPGDGSGLMLEEVTGLKCNFESAREGNEQLTEEERLLKFSIGAKCNTDTFYFISSTTRVNFTEIDKNSKEQDNQFKVTYDMIGGLSSQLKAIREIIELPLKQPELFKSYGIPAPRGVLLYGPPGTGKTMIARAVANEVGAYVSVINGPEIISKFYGETEAKLRQIFAEATLRHPSIIFIDELDALCPKREGAQNEVEKRVVASLLTLMDGIGSEVSEGQVLVLGATNRPHALDAALRRPGRFDKEIEIGVPNAQDRLDILQKLLRRVPHLLTEAELLQLANSAHGYVGADLKVLCNEAGLCALRRILKKQPNLPDVKVAGLVKITLKDFLQAMNDIRPSAMREIAIDVPNVSWSDIGGLESIKLKLEQAVEWPLKHPESFIRMGIQPPKGVLLYGPPGCSKTMIAKALANESGLNFLAIKGPELMNKYVGESERAVRETFRKARAVAPSIIFFDELDALAVERGSSLGAGNVADRVLAQLLTEMDGIEQLKDVTILAATNRPDRIDKALMRPGRIDRIIYVPLPDAATRREIFKLQFHSMPVSNEVDLDELILQTDAYSGAEIVAVCREAALLALEEDIQANLIMKRHFTQALSTVTPRIPESLRRFYEDYQEKSGLHTL |  | binds
6 | SPATA5L1 (protein, UniProt Q9BVQ7 1-753) MAPDSDPFPEGPLLKLLPLDARDRGTQRCRLGPAALHALGARLGSAVKISLPDGGSCLCTAWPRRDGADGFVQLDPLCASPGAAVGASRSRRSLSLNRLLLVPCPPLRRVAVWPVLRERAGAPGARNTAAVLEAAQELLRNRPISLGHVVVAPPGAPGLVAALHIVGGTPSPDPAGLVTPRTRVSLGGEPPSEAQPQPEVPLGGLSEAADSLRELLRLPLRYPRALTALGLAVPRGVLLAGPPGVGKTQLVRAVAREAGAELLAVSAPALQGSRPGETEENVRRVFQRARELASRGPSLLFLDEMDALCPQRGSRAPESRVVAQVLTLLDGASGDREVVVVGATNRPDALDPALRRPGRFDREVVIGTPTLKQRKEILQVITSKMPISSHVDLGLLAEMTVGYVGADLTALCREAAMHALLHSEKNQDNPVIDEIDFLEAFKNIQPSSFRSVIGLMDIKPVDWEEIGGLEDVKLKLKQSIEWPLKFPWEFVRMGLTQPKGVLLYGPPGCAKTTLVRALATSCHCSFVSVSGADLFSPFVGDSEKVLSQIFRQARASTPAILFLDEIDSILGARSASKTGCDVQERVLSVLLNELDGVGLKTIERRGSKSSQQEFQEVFNRSVMIIAATNRPDVLDTALLRPGRLDKIIYIPPPDHKGRLSILKVCTKTMPIGPDVSLENLAAETCFFSGADLRNLCTEAALLALQENGLDATTVKQEHFLKSLKTVKPSLSCKDLALYENLFKKEGFSNVEGI |  | binds
7 | NXT1 (protein, UniProt Q9UKK6 1-140) MASVDFKTYVDQACRAAEEFVNVYYTTMDKRRRLLSRLYMGTATLVWNGNAVSGQESLSEFFEMLPSSEFQISVVDCQPVHDEATPSQTTVLVVICGSVKFEGNKQRDFNQNFILTAQASPSNTVWKIASDCFRFQDWAS |  | no binding
